From US20220323406A1, “METHODS AND COMPOSITIONS FOR DIFFERENTIATING STEM CELLS” (Massachusetts Institute of Technology, priority 2019, published 2022)
Where “and” joins values, the source holds several entries; their conditions need not be identical. Identical values can stand only once. Counter-ions that a name gives are not always drawn. At least one read-out could not be matched to a standard name with certainty.

System: ENR+CD organoids
Experiment: Primary screen: ATP (CellTiter-Glo 3D, CTG) cell number/viability, 2.5-D 384-well ENR+CD organoids;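 further: compounds given at plating and again on day 3 over a 6-day differentiation from ENR+CV stem-cell-enriched precursors, ATP measured on day 6, plate median as control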
[1] = primary screen, dose 0.08 uM, standard z score
[2] = primary screen, dose 0.40 uM, standard z score
[3] = primary screen, dose 2.00 uM, standard z score
[4] = primary screen, dose 10.00 uM, standard z score
[5] = primary screen, standard z score, dose 0.08 uM
[6] = primary screen, standard z score, dose 0.40 uM
[7] = primary screen, standard z score, dose 2.00 uM
[8] = primary screen, standard z score, dose 10.00 uM

Structure (SMILES)	Z.CTG [1]	Z.CTG [2]	Z.CTG [3]	Z.CTG [4]	Z.CTG (standard z score) (primary screen, dose 0.08 uM)	Z.CTG (standard z score) (primary screen, dose 0.40 uM)	Z.CTG (standard z score) (primary screen, dose 2.00 uM)	Z.CTG (standard z score) (primary screen, dose 10.00 uM)	further results
Cc1sc2c(c1C)C(c1ccc(Cl)cc1)=N[C@@H](CC(=O)Nc1ccc(O)cc1)c1nnc(C)n1-2 [OTX015]	−0.092	−0.952	−1.638	−2.169	–	–	–	–	–
CC(=O)O[C@]1(C(C)=O)CC[C@H]2[C@@H]3C=C(Cl)C4=CC(=O)[C@@H]5C[C@@H]5[C@]4(C)[C@H]3CC[C@@]21C [Cyproterone Acetate]	–	–	–	–	–	–	–	–	Z.CTG [5]: −0.263; Z.CTG [6]: 0.122; Z.CTG [7]: −0.341; Z.CTG [8]: −0.414
Cc1c(Cl)cccc1Nc1ccccc1C(=O)O [Tolfenamic Acid]	–	–	–	–	0.467	−0.007	−0.379	−0.276	–
COc1ccccc1N1CCN(CC(O)COc2cccc3ccccc23)CC1 (stereo not shown) [Naftopidil]	−0.093	−0.384	−0.426	−0.316	–	–	–	–	–
O=C(N/N=C/c1ccc(O)c(O)c1)c1cc2ccccc2cc1O [Dynasore]	–	–	–	–	–	–	–	–	Z.CTG [5]: −0.592; Z.CTG [6]: −0.604; Z.CTG [7]: −0.364; Z.CTG [8]: −0.026
CC12CC3CC(C)(C1)CC(N)(C3)C2 [Memantine HCl]	–	–	–	–	0.199	0.173	−0.018	0.184	–
CCO[C@@H]1OC(=O)C[C@@H]1NC(=O)[C@@H]1CCCN1C(=O)[C@@H](NC(=O)c1ccc(N)c(Cl)c1)C(C)(C)C [VX-765]	–	–	–	–	0.368	0.555	0.393	0.608	SSMD.CTG (strictly standardized mean difference, ATP CTG) (Table 5A primary screen; grouped by compound and dose; four dose lines per treatment, dose (uM) not given): 0.535 and 0.773 and 0.618 and 0.601
CC[C@H](NC(=O)[C@H](C)NC)C(=O)N1C[C@@H](O)C[C@H]1Cc1c(-c2[nH]c3cc(F)ccc3c2C[C@@H]2C[C@H](O)CN2C(=O)[C@H](CC)NC(=O)[C@H](C)NC)[nH]c2cc(F)ccc12 [Birinapant]	–	–	–	–	−0.615	0.226	0.542	0.293	–
Cc1cc(OCc2nnc(SC3CCCC3)n2-c2cccnc2)ccc1-c1ccc(S(C)(=O)=O)cc1 [NMS-873]	0.416	−0.122	−2.173	−3.683	–	–	–	–	–
Cc1cc(OCCCS(C)(=O)=O)cc(C)c1-c1cccc(COc2ccc3c(c2)OC[C@H]3CC(=O)O)c1 [TAK-875]	0.572	−0.392	−0.376	−0.694	–	–	–	–	–
COc1ccc(-n2nc(C(N)=O)c3c2C(=O)N(c2ccc(N4CCCCC4=O)cc2)CC3)cc1 [Apixaban]	–	–	–	–	−0.212	0.266	−0.144	−0.185	–
COc1ccc2c(c1)C(=O)N(CCc1ccc(S(=O)(=O)NC(=O)NC3CCCCC3)cc1)C(=O)C2(C)C [Gliquidone]	–	–	–	–	0.297	0.247	0.588	0.320	–
O=c1ncn2nc(Sc3ccc(F)cc3F)ccc2c1-c1c(Cl)cccc1Cl [VX-745]	–	–	–	–	0.445	0.349	0.044	0.053	–
CCCc1nc2c(C)cc(-c3nc4ccccc4n3C)cc2n1Cc1ccc(-c2ccccc2C(=O)O)cc1 [Telmisartan]	0.320	0.584	0.153	0.549	–	–	–	–	–
COc1ccccc1Oc1c(NS(=O)(=O)c2ccc(C(C)(C)C)cc2)nc(-c2ncccn2)nc1OCCO [Bosentan Hydrate]	–	–	–	–	0.487	0.495	0.288	0.204	–
CC(C)(C#N)c1cc(Cn2cncn2)cc(C(C)(C)C#N)c1 [Anastrozole]	–	–	–	–	−0.279	0.057	−0.139	−1.191	–

Structure (SMILES)	Z.CTG [1]	Z.CTG [2]	Z.CTG [3]	Z.CTG [4]	Z.CTG (standard z score) (primary screen, dose 0.08 uM)	Z.CTG (standard z score) (primary screen, dose 0.40 uM)	Z.CTG (standard z score) (primary screen, dose 2.00 uM)	Z.CTG (standard z score) (primary screen, dose 10.00 uM)	further results
COc1ccccc1OCCNCC(O)COc1cccc2[nH]c3ccccc3c12 (stereo not shown) [Carvedilol]	–	–	–	–	–	–	–	–	Z.CTG [5]: 0.136; Z.CTG [6]: −0.034; Z.CTG [7]: −0.360; Z.CTG [8]: −0.577
CCOc1ccccc1-n1c(C(C)N2CCN(C(=O)COc3ccc(Cl)cc3)CC2)nc2ccccc2c1=O (stereo not shown) [Erastin]	–	–	–	–	–	–	–	–	Z.CTG [5]: 0.537; Z.CTG [6]: 0.681; Z.CTG [7]: 0.907; Z.CTG [8]: 0.711
Nc1nc(N)c2nc(-c3ccccc3)c(N)nc2n1 [Triamterene]	–	–	–	–	−0.070	−0.394	−0.241	−1.103	–
N#CC1(c2ccc(NC(=O)c3cccnc3NCc3ccncc3)cc2)CCCC1 [Apatinib]	–	–	–	–	0.532	0.722	0.645	0.520	–
Oc1nc(-c2ccc(C(F)(F)F)cc2)nc2c1CSCC2 [XAV-939]	–	–	–	–	−0.792	−0.065	−0.847	−2.147	–
CC#CCn1c(N2CCC[C@@H](N)C2)nc2c1c(=O)n(Cc1nc(C)c3ccccc3n1)c(=O)n2C [Linagliptin]	–	–	–	–	0.389	0.499	0.054	−0.027	–
Cc1ccc(S(=O)(=O)NC(=O)NN2CC3CCCC3C2)cc1 (stereo not shown) [Gliclazide]	–	–	–	–	–	–	–	−0.219	Z.CTG [5]: 0.386; Z.CTG [6]: 0.128; Z.CTG [7]: 0.020
NC(=O)N1c2ccccc2CC(=O)c2ccccc21 [Oxcarbazepine]	−0.051	−0.247	−0.197	–	–	–	–	–	–
CC[C@H](C)C(=O)O[C@H]1C[C@@H](C)C=C2C=C[C@H](C)[C@H](CC[C@@H]3C[C@@H](O)CC(=O)O3)[C@H]21 [Lovastatin]	–	–	–	–	−0.769	−1.174	−2.803	−3.322	–
CC(C)NCC(O)COc1cccc2ccccc12 (stereo not shown) [Propranolol HCl]	0.158	0.129	0.279	0.400	–	–	–	–	–
O=C(O)Cn1nnc(-c2cc(N3CCC(Oc4cc(F)ccc4Br)CC3)no2)n1 [MK-8245]	0.374	−0.269	−0.051	−0.629	–	–	–	–	–
CN[C@H]1CC[C@@H](c2ccc(Cl)c(Cl)c2)c2ccccc21 [Sertraline HCl]	−0.189	0.208	0.157	0.104	–	–	–	–	–
O=C(NC(Cc1cc(=O)[nH]c2ccccc12)C(=O)O)c1ccc(Cl)cc1 (stereo not shown) [Rebamipide]	−0.612	−1.217	−0.484	−0.672	–	–	–	–	–
O=C(O)c1ccc(Nc2ncc3c(n2)-c2ccc(Cl)cc2C(c2c(F)cccc2F)=NC3)cc1 [MLN8054]	0.063	0.033	−1.111	−1.191	–	–	–	–	–
CC(=O)OCC(=O)NCCCOc1cccc(CN2CCCCC2)c1 [Roxatidine Acetate HCl]	−0.095	0.050	−0.245	−0.564	–	–	–	–	–
